Assay [1] addresses T1, mouse RIG-I (mouse (Mus musculus)) (UniProt Q6Q899).
T1 sequence: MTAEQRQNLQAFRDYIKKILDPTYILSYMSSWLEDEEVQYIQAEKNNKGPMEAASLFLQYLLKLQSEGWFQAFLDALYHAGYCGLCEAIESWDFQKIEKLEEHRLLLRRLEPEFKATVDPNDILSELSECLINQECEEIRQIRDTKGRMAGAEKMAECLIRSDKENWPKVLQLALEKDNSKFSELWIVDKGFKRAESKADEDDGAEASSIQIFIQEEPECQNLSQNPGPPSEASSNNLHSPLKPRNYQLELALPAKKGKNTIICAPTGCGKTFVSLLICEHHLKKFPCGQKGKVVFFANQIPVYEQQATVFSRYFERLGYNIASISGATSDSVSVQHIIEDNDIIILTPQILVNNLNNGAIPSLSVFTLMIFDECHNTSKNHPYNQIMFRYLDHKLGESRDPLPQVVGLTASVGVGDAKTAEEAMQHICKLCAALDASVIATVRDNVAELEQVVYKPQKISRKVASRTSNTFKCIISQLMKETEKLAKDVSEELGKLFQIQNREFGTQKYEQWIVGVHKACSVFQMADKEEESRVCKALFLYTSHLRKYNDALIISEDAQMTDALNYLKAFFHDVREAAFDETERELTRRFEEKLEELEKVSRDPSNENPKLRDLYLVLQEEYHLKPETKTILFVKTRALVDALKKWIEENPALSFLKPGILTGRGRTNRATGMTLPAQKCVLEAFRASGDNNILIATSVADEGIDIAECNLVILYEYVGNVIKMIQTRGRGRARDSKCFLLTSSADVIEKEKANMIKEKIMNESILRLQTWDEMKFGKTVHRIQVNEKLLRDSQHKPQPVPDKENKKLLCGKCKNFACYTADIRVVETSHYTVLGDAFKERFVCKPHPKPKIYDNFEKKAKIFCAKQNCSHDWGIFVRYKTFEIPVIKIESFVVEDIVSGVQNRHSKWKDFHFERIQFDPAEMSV
The assay is described as follows: co-IP; HEK293T co-transfected, 48 h; lysis in 10mM HEPES pH7.5, 30mM KCl, 40uM EDTA, 0.1% Igepal CA-630, 1mM DTT; FLAG-tagged sensor precipitated with anti-FLAG on Protein G Dynabeads, 2h at 4C; final washes with 300mM KCl, 0.5% Igepal; western blot. (A western blot detects proteins with antibodies after separation by electrophoresis.)

Amino acid sequences for entries named in this document (tags omitted). A change or cut given only in a name is not applied to a line headed by its entry. Chains listed by the source or under a name are the forms on record and can include a tag or linker.
UniProt Q7Z2W4: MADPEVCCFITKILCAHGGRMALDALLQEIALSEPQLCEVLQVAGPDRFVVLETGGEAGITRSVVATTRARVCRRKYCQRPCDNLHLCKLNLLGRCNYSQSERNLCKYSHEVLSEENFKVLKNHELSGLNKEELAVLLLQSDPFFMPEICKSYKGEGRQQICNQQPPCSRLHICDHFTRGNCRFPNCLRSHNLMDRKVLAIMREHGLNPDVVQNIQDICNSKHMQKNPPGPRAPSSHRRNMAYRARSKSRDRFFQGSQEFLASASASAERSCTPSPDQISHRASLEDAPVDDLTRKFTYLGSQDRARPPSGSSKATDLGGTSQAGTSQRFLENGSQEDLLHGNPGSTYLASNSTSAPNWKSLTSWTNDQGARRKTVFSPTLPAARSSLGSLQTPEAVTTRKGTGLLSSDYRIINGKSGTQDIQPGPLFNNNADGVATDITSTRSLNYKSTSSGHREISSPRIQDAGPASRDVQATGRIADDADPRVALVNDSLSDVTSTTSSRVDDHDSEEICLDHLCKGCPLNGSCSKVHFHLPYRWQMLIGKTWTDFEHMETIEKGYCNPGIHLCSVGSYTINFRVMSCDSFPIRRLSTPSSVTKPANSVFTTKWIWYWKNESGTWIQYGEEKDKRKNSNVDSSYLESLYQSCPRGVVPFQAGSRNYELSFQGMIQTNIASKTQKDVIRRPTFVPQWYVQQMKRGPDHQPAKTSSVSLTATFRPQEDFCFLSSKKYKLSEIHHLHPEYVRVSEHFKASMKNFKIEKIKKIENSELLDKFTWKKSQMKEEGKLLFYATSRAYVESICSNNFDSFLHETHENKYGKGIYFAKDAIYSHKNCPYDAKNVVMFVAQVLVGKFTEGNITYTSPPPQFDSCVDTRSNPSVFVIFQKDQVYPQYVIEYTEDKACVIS
ZAP-S wildtype (Q7Z2W4, form named): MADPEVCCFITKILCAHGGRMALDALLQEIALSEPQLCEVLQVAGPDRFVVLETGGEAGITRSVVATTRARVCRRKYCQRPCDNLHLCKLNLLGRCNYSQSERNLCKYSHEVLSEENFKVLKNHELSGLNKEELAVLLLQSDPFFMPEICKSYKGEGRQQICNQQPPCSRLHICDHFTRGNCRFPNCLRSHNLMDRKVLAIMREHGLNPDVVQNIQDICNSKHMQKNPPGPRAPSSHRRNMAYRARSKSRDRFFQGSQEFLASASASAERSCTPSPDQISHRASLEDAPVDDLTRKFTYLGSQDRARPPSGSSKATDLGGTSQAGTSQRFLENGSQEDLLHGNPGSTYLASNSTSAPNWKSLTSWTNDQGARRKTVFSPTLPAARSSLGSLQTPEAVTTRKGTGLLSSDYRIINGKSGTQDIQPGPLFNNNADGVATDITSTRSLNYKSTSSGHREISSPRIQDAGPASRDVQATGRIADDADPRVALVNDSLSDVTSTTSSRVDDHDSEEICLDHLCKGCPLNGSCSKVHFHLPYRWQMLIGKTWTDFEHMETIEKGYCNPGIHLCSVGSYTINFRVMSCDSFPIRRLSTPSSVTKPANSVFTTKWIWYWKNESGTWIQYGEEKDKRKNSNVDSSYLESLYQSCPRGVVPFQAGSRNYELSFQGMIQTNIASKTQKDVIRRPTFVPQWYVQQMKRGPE

For assay [2], the target named is ZAP-L-FLAG (human) (UniProt Q7Z2W4). The assay is described as follows: co-IP; HEK293T ZAP-/- TRIM25-/- co-transfected, 48 h; ZAP precipitated from lysates (ZAP-L-FLAG with anti-FLAG; antibody for ZAP-S not stated); buffers as in the co-IP methods; western blot.
Assay [3] addresses T2, RIG-I-FLAG (human) (UniProt O95786).
T2 sequence: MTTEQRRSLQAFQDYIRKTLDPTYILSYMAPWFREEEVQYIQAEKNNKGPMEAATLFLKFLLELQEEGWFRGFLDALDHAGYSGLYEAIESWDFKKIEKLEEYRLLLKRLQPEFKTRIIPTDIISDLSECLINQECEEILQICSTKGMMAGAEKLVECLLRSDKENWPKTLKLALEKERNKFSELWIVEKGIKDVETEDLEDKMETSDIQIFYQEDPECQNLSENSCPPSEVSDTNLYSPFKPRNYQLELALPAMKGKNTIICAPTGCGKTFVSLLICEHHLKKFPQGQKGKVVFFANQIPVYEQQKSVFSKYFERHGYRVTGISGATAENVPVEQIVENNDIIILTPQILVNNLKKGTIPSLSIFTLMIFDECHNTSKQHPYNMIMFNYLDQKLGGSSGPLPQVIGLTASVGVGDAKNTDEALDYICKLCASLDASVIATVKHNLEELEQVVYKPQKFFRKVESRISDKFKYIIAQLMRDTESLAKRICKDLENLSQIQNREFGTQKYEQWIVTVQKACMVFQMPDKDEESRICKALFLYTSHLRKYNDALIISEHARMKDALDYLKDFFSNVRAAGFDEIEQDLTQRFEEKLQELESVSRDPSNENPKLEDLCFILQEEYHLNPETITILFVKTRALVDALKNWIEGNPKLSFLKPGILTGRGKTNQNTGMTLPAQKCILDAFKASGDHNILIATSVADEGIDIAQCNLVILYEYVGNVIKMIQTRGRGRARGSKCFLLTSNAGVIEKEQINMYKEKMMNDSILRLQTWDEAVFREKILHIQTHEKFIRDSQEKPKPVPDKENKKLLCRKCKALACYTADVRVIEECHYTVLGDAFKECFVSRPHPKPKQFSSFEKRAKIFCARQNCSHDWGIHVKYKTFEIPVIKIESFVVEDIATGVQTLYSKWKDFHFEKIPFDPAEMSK
The assay is described as follows: co-IP; HEK293T co-transfected, 48 h; lysis in 10mM HEPES pH7.5, 30mM KCl, 40uM EDTA, 0.1% Igepal CA-630, 1mM DTT; FLAG-tagged sensor precipitated with anti-FLAG on Protein G Dynabeads, 2h at 4C; final washes with 300mM KCl, 0.5% Igepal; western blot.

For assay [4], the target named is ZAP-L-FLAG (human) (UniProt Q7Z2W4). The description is as above.
For assay [5], the target named is T3, OAS2-FLAG (human) (UniProt P29728).
T3 sequence: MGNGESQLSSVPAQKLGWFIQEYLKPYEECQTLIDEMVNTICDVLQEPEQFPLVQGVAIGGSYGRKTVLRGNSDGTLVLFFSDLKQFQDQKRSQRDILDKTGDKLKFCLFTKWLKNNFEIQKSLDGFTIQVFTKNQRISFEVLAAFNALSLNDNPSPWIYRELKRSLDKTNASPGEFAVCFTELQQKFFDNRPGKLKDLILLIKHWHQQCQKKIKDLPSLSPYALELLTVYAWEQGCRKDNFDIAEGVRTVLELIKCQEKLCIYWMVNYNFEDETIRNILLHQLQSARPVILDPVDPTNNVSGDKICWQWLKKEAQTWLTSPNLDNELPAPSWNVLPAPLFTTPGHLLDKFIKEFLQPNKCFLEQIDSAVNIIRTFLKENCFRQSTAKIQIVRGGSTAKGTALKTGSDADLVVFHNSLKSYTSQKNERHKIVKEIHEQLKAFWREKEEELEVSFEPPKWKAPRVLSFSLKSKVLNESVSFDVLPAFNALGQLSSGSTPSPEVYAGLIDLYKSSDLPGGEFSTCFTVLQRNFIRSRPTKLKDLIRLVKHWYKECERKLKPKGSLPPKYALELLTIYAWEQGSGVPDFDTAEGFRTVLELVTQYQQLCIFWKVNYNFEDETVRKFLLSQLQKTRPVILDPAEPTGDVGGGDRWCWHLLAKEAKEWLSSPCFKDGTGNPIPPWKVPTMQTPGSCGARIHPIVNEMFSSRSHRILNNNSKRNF
Described as above.

In assay [6] the target is T4, human Riplet (in-cell crosslinking) (human), Q8IUD6.
T4 chain: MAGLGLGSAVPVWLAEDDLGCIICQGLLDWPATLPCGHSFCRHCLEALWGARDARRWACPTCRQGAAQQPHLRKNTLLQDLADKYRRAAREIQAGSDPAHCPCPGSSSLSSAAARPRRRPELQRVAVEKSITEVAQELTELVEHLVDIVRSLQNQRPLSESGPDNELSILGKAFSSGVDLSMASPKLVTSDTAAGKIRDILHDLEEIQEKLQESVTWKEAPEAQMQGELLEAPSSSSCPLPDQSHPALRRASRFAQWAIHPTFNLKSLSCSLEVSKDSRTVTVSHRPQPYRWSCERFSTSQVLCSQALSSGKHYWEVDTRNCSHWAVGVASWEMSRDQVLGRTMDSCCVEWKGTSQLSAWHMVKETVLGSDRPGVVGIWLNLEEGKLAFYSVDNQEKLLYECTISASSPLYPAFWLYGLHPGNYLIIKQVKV
Kind of assay: cross-linking; in-cell: 0.00625% glutaraldehyde in serum-free DMEM, 15min, room temperature, quenched with 50mM Tris-HCl pH 8; lysates on Tris-Acetate 3-8% gels; western blot. The conditions noted are these: remark: other sources report otherwise.

Assay [7] has as its target ZAP-L-FLAG (human) (UniProt Q7Z2W4). The assay is described as follows: co-IP; HEK293T ZAP-/- TRIM25-/- KHNYN-/- N4BP1-/- co-transfected; ZAP-L complexes isolated from lysates; western blot; in Fig 5g 500ng of ZAP-L and TRIM25 plasmids with increasing amounts of KHNYN plasmid.
Assay [8] deals with ZAP-S wildtype (human) (UniProt Q7Z2W4). Kind of assay: co-IP; HEK293T ZAP-/- TRIM25-/- co-transfected, 48 h; ZAP precipitated from lysates (ZAP-L-FLAG with anti-FLAG; antibody for ZAP-S not stated); buffers as in the co-IP methods; western blot.
In assay [9] the target is ZAP-L-HA (human) (UniProt Q7Z2W4). Kind of assay: co-IP; HEK293T transfected with ZAP-L-HA, GFP-HA and OASL; ZAP- or GFP-complexes purified from lysates with an anti-HA antibody; western blot.

No constants are given. Whether binding was seen depends on the method and setting. In cells and extracts the contact can be indirect. Some binding calls cover weakened binding; strength is not graded here. For part of these data: Where a sequence is shown, tags or fusion partners need not be part of it.

B1: mouse Riplet (enzyme, UniProt Q9CWS1 1-417)
chain: MAAVCSGNAVPVWLSEDDLSCIICQGLLDQPTTLPCGHSFCLRCLHDLWVSKRGAVDGCPWACPICRKGPLTKPKLHKNPLLQDLVDKYLQAAREVEAGSEPEPAPAPRSAPQVTVQKSTTNVIQELTDMVRQLVDDVKSLQTQRPNLGSGQDNAQGTPPTDSSSEGEHSLDSPKLVTFSISQKKIQEILHNLEEIQEKLQGSVPGRAPPRERVQEMTSSLCLLPDQRRPAPRKASHLSLWAISPTFDLRTLSYNLEVSNNSRRVTVSRGDLHTYHWSPQRFSISQVFCSQALSSGQKYWEVDTRNCSHWAIGVASWGMKRDGMLGRTMDSWCIEWRGPGQFSAWAKMKKTDLQSDLPEVVGVWLDLESGELAFYAVADHERLLYECEVSSSSPLHPAFWLYGLSPGNYLEIKQLNT
As to B1, in assay [1], the binding result was “binds”.

B2: Riplet-HA (enzyme, UniProt Q8IUD6 1-432)
chain: MAGLGLGSAVPVWLAEDDLGCIICQGLLDWPATLPCGHSFCRHCLEALWGARDARRWACPTCRQGAAQQPHLRKNTLLQDLADKYRRAAREIQAGSDPAHCPCPGSSSLSSAAARPRRRPELQRVAVEKSITEVAQELTELVEHLVDIVRSLQNQRPLSESGPDNELSILGKAFSSGVDLSMASPKLVTSDTAAGKIRDILHDLEEIQEKLQESVTWKEAPEAQMQGELLEAPSSSSCPLPDQSHPALRRASRFAQWAIHPTFNLKSLSCSLEVSKDSRTVTVSHRPQPYRWSCERFSTSQVLCSQALSSGKHYWEVDTRNCSHWAVGVASWEMSRDQVLGRTMDSCCVEWKGTSQLSAWHMVKETVLGSDRPGVVGIWLNLEEGKLAFYSVDNQEKLLYECTISASSPLYPAFWLYGLHPGNYLIIKQVKV
For the molecule B2, the binding entry in [2] is recorded as “no binding”; in assay [3], “binds”; in assay [4], “no binding”; in assay [5] it was “binds”.

B3: human Riplet (in-cell crosslinking), Q8IUD6 1-432 (enzyme)
chain: MAGLGLGSAVPVWLAEDDLGCIICQGLLDWPATLPCGHSFCRHCLEALWGARDARRWACPTCRQGAAQQPHLRKNTLLQDLADKYRRAAREIQAGSDPAHCPCPGSSSLSSAAARPRRRPELQRVAVEKSITEVAQELTELVEHLVDIVRSLQNQRPLSESGPDNELSILGKAFSSGVDLSMASPKLVTSDTAAGKIRDILHDLEEIQEKLQESVTWKEAPEAQMQGELLEAPSSSSCPLPDQSHPALRRASRFAQWAIHPTFNLKSLSCSLEVSKDSRTVTVSHRPQPYRWSCERFSTSQVLCSQALSSGKHYWEVDTRNCSHWAVGVASWEMSRDQVLGRTMDSCCVEWKGTSQLSAWHMVKETVLGSDRPGVVGIWLNLEEGKLAFYSVDNQEKLLYECTISASSPLYPAFWLYGLHPGNYLIIKQVKV
Consider B3, for which the binding result in [6] is given as “no binding”.

B4: OASL (protein, UniProt Q15646 1-514)
chain: MALMQELYSTPASRLDSFVAQWLQPHREWKEEVLDAVRTVEEFLRQEHFQGKRGLDQDVRVLKVVKVGSFGNGTVLRSTREVELVAFLSCFHSFQEAAKHHKDVLRLIWKTMWQSQDLLDLGLEDLRMEQRVPDALVFTIQTRGTAEPITVTIVPAYRALGPSLPNSQPPPEVYVSLIKACGGPGNFCPSFSELQRNFVKHRPTKLKSLLRLVKHWYQQYVKARSPRANLPPLYALELLTIYAWEMGTEEDENFMLDEGFTTVMDLLLEYEVICIYWTKYYTLHNAIIEDCVRKQLKKERPIILDPADPTLNVAEGYRWDIVAQRASQCLKQDCCYDNRENPISSWNVKRARDIHLTVEQRGYPDFNLIVNPYEPIRKVKEKIRRTRGYSGLQRLSFQVPGSERQLLSSRCSLAKYGIFSHTHIYLLETIPSEIQVFVKNPDGGSYAYAINPNSFILGLKQQIEDQQGLPKKQQQLEFQGQVLQDWLGLGIYGIQDSDTLILSKKKGEALFPAS
Consider B4, for which the binding entry in [7], in assay [8] and in assay [9] was “binds” in each case.
